Measured values as given in article PMC4774922.
Results are given in words; binding and its absence hold for the method and conditions named. Binding seen in cells or lysates may run through a third protein. A yes stands for co-enrichment or nearness to the bait. Other partners may have been found. For some of these results: A no says only that the protein was not detected with the bait. For some of these results: Where a sequence is shown, tags or fusion partners need not be part of it. Values belong to the molecule of their own block, whether it stands above or below them.

Amino acid sequences for entries named in this document (tags omitted). A change or cut given only in a name is not applied to a line headed by its entry.
UniProt Q9HAU5: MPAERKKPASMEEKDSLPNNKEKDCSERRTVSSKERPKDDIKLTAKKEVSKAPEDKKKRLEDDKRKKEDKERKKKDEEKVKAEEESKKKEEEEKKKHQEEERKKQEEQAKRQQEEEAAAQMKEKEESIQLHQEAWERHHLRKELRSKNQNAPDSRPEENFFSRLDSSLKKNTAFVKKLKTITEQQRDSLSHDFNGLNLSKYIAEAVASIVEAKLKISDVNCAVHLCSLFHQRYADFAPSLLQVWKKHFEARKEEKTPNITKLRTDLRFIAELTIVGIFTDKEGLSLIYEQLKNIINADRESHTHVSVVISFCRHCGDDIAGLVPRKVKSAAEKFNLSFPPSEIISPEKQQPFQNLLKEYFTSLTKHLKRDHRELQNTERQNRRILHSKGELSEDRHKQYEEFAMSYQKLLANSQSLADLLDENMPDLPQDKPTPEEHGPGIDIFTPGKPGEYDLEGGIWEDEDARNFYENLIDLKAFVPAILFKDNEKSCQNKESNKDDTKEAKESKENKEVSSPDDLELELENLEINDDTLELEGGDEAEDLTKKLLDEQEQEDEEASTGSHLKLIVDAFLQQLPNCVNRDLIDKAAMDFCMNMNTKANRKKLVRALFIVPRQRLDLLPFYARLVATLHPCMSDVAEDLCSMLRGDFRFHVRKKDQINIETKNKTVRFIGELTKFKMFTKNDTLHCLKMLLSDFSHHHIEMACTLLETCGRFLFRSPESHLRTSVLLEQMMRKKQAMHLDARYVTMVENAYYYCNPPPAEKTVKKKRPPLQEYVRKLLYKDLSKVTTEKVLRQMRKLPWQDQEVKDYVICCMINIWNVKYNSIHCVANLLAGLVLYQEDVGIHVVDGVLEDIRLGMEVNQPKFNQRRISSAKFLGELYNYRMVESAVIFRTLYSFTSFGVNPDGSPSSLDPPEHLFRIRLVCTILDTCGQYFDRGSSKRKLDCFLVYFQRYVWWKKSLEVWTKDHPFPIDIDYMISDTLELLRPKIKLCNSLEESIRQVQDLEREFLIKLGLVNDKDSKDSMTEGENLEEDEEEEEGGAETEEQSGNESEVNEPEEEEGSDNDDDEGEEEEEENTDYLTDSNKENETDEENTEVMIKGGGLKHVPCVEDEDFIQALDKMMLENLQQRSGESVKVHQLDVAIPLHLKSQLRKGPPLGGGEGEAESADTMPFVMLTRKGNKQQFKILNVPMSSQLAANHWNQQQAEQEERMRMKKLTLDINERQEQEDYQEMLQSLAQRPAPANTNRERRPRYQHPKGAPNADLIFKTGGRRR
UniProt O15234: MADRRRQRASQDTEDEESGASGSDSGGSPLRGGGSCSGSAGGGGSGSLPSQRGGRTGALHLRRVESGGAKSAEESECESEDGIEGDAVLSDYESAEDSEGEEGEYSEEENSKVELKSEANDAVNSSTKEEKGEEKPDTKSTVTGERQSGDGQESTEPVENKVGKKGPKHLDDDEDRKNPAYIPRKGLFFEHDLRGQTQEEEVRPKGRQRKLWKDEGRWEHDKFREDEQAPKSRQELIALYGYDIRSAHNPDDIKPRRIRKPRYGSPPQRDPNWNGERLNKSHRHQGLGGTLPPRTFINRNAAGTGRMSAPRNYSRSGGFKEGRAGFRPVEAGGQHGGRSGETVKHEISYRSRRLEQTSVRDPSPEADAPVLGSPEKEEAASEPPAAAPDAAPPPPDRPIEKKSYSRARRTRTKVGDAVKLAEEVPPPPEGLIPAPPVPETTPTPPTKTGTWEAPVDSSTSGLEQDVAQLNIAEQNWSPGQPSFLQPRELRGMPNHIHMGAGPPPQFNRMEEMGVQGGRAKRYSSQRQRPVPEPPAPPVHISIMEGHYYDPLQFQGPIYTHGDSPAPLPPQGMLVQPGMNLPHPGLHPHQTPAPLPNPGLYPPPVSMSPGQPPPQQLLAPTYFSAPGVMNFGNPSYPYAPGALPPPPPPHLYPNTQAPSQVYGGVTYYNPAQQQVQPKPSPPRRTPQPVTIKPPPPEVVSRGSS
UniProt P46109: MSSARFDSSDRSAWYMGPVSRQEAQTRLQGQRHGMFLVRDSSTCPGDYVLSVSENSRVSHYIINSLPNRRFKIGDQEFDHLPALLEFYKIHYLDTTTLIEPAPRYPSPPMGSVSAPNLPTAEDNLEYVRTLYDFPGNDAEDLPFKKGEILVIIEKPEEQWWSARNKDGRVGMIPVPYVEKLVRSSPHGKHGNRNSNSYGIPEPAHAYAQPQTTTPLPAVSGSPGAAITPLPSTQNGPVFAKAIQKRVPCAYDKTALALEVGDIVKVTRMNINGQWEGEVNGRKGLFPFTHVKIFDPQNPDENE
UniProt O00571: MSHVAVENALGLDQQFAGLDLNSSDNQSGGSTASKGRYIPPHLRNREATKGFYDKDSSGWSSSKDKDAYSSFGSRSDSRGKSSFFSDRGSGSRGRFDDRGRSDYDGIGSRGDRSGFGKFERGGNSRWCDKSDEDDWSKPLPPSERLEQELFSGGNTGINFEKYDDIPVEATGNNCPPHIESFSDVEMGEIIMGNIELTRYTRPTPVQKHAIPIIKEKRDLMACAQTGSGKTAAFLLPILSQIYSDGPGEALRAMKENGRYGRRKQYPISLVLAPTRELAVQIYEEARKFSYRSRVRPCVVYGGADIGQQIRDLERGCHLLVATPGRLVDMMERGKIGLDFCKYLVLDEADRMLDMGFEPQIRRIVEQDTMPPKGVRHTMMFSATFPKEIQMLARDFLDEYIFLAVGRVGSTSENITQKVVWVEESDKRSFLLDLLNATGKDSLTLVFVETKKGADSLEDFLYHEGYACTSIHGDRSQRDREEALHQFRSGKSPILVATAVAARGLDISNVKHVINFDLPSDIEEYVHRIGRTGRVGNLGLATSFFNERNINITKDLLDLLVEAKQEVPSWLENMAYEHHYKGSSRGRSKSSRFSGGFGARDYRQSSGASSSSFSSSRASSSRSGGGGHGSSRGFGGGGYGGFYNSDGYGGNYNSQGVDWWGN
UniProt P78344: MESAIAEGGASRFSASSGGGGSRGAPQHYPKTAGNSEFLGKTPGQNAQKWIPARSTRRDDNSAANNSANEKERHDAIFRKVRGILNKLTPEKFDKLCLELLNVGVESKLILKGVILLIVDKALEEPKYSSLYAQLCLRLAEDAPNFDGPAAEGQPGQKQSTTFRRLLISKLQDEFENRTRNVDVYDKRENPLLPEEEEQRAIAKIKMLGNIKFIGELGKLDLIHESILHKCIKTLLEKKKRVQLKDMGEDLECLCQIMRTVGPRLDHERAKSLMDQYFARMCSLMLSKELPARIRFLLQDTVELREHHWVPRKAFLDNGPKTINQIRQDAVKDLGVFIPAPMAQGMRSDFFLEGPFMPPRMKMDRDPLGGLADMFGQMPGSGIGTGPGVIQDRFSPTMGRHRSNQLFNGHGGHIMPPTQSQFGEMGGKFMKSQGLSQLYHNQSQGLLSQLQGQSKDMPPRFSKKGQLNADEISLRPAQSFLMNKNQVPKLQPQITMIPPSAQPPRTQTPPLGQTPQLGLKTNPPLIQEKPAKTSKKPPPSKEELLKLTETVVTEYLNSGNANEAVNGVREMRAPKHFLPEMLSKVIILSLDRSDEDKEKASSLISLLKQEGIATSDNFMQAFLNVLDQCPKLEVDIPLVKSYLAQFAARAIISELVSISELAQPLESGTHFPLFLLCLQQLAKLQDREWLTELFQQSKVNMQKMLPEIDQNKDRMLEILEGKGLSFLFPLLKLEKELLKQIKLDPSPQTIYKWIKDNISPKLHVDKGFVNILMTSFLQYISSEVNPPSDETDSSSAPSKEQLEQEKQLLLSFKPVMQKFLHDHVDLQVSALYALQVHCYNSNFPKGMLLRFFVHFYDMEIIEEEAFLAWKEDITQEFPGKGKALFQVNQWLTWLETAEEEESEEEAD
UniProt P61326: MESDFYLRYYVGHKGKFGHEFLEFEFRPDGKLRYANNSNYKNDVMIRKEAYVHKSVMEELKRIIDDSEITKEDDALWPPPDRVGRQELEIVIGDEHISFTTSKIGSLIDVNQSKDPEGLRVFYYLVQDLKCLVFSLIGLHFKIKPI
UniProt P46108: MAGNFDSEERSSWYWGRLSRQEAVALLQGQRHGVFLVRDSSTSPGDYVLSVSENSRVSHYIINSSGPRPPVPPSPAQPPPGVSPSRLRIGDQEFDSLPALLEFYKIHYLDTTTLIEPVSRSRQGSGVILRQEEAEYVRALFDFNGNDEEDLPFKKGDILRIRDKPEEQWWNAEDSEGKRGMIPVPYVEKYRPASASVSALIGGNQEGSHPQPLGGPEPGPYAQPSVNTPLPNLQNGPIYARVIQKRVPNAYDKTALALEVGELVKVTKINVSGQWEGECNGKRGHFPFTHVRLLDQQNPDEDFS
UniProt P25685: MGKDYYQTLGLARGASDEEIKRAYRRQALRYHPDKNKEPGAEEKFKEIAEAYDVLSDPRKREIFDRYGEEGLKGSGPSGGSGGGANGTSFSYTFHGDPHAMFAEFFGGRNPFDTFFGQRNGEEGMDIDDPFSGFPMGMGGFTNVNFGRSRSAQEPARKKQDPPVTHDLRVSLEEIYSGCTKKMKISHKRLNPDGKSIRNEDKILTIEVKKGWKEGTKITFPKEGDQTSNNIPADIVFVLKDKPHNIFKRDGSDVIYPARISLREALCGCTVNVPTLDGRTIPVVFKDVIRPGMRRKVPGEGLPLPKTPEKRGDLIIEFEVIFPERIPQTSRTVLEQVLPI
UniProt Q8IZH2: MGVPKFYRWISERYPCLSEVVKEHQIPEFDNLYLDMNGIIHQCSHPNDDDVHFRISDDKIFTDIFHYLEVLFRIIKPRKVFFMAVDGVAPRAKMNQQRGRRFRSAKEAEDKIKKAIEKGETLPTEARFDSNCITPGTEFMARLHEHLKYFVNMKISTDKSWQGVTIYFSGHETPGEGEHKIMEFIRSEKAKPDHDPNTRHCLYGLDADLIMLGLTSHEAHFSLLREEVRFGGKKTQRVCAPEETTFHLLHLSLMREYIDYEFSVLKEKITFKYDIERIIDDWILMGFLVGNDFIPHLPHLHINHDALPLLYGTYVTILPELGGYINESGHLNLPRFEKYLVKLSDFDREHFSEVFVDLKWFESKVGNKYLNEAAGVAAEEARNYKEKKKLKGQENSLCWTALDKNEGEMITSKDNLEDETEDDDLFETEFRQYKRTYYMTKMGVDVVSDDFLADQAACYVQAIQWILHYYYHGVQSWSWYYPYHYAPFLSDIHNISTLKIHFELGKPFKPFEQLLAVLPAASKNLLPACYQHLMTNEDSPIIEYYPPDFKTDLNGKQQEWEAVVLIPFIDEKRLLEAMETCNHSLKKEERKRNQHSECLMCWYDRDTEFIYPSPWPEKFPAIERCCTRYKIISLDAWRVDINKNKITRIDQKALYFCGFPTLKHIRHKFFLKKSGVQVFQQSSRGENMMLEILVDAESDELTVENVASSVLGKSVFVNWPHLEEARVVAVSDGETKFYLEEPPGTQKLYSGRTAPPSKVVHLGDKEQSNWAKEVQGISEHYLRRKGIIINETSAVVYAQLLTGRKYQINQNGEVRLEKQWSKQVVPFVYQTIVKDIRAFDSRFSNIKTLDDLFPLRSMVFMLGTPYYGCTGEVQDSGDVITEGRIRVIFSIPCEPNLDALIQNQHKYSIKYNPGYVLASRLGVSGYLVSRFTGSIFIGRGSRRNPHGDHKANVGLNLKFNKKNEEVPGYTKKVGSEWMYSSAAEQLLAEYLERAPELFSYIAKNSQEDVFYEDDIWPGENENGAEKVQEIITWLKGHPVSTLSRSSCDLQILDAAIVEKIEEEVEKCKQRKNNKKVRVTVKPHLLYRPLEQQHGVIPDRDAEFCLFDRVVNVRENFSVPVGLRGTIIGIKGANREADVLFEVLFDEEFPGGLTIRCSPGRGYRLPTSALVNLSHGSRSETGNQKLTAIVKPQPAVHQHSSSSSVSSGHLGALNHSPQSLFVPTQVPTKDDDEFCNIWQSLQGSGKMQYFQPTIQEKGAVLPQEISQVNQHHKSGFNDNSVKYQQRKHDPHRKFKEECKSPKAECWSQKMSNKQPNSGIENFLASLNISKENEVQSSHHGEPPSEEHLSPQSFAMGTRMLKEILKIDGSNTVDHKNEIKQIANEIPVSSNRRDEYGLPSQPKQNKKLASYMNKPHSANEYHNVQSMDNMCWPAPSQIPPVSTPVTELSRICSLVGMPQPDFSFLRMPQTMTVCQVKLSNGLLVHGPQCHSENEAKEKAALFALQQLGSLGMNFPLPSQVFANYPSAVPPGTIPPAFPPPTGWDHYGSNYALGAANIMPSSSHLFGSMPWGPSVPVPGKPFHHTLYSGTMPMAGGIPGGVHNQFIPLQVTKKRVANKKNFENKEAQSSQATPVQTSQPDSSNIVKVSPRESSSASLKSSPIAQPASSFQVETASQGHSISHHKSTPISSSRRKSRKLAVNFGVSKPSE

What was measured:
[1] = molecular target: T1, HA-BirA(R118G)-tagged SMG5, RNAi-resistant (UniProt Q9UPR3); assay: co-IP + proximity labelling; tandem purification: HB*-bait in 293T cells, 50 μM biotin for six hours; anti-HA magnetic beads, then streptavidin capture of the biotinylated proteins in the precipitate; LC-MS/MS
T1 sequence: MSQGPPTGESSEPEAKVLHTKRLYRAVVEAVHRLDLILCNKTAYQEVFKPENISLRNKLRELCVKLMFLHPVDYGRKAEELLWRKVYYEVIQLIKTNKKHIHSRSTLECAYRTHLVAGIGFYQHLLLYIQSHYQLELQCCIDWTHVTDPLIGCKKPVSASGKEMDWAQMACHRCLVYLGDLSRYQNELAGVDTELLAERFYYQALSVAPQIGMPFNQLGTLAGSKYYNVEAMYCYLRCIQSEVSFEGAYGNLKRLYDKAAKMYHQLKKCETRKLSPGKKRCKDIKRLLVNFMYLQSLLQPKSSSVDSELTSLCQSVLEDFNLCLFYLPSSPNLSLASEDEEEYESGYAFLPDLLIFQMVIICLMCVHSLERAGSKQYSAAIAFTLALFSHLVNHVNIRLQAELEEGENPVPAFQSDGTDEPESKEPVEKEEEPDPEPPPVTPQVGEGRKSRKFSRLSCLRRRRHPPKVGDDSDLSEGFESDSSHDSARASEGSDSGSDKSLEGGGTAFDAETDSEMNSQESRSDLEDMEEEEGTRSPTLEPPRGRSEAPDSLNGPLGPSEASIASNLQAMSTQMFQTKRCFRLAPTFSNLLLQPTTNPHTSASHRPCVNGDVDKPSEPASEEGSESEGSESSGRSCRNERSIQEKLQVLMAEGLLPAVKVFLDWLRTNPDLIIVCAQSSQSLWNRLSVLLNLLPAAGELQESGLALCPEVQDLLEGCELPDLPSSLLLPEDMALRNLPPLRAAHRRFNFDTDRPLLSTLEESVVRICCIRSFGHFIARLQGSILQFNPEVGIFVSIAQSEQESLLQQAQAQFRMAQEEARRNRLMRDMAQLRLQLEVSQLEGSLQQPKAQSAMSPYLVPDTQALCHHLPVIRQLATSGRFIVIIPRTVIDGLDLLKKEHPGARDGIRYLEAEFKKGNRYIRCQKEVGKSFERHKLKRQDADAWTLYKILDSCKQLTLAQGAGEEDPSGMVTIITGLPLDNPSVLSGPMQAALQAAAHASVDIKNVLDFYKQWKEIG

[2] = molecular target: T1, HA-BirA(R118G)-tagged SMG5, RNAi-resistant; assay: proximity labelling; BioID: HB*-bait transiently expressed in 293T cells, 50 μM biotin for 16 hours; streptavidin capture; LC-MS/MS; kept: at least two exclusive unique peptides and more than two times the normalized spectrum count of the free HB* control
[3] = molecular target: T2, HA-BirA(R118G)-tagged UPF1, RNAi-resistant (UniProt Q92900); assay: as above
T2 sequence: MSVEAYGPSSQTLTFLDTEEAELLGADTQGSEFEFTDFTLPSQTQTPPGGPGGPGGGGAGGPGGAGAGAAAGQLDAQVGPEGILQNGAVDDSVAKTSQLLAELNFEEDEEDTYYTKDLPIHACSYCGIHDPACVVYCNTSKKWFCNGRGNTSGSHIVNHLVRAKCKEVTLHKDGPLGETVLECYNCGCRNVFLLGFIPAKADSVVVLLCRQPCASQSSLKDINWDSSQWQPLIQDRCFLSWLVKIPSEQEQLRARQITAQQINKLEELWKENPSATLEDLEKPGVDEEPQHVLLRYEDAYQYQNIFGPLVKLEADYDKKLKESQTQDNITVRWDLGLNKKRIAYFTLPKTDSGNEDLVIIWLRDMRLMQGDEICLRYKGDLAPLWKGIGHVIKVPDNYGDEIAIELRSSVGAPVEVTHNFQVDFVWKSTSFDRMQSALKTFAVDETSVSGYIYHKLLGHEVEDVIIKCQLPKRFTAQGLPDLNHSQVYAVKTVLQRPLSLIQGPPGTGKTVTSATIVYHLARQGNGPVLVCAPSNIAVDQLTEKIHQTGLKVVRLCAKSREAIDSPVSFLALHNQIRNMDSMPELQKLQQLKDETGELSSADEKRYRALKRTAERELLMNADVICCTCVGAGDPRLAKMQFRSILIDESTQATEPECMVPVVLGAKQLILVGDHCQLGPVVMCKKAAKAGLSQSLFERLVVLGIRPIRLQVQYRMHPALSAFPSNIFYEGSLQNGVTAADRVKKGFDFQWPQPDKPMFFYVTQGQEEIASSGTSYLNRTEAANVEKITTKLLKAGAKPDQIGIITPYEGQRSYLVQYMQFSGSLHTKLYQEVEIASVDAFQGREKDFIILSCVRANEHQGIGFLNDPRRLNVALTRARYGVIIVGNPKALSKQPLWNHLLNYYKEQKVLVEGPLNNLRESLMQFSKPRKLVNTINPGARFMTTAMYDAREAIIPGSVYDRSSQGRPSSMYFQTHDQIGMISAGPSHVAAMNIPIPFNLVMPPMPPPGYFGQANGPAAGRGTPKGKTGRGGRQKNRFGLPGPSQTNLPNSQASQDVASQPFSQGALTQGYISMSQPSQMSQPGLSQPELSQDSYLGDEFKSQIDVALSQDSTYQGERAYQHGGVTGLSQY

[4] = molecular target: HA-BirA(R118G)-tagged UPF2, RNAi-resistant (UniProt Q9HAU5); assay: as above
[5] = molecular target: T2, HA-BirA(R118G)-tagged UPF1, RNAi-resistant; assay: co-IP + proximity labelling; tandem purification: HB*-bait in 293T cells, 50 μM biotin for six hours; anti-HA magnetic beads, then streptavidin capture of the biotinylated proteins in the precipitate; LC-MS/MS
[6] = molecular target: HA-BirA(R118G)-tagged UPF2, RNAi-resistant (UniProt Q9HAU5); assay: as above
[7] = molecular target: T2, HA-BirA(R118G)-tagged UPF1, RNAi-resistant; assay: proximity labelling; BioID: HB*-bait transiently expressed in 293T cells at near endogenous levels, 50 μM biotin for 16 hours; biotinylated proteins captured on magnetic streptavidin beads; western blot
[8] = molecular target: HA-BirA(R118G)-tagged UPF2, RNAi-resistant (UniProt Q9HAU5); assay: proximity labelling; BioID: HB*-bait transiently expressed in 293T cells, 50 μM biotin for 16 hours; streptavidin capture; LC-MS/MS; kept: at least two exclusive unique peptides and more than two times the normalized spectrum count of the free HB* control; remark: listed apart in the source

Molecule: CASC3 (from UniProt O15234 1-703)
binding [1]: no binding

Molecule: CRKL (from UniProt P46109 1-303)
binding [4]: binds

Molecule: DDX3X (from UniProt O00571 1-662)
binding [1]: binds
binding [5]: binds
binding [6]: binds

Molecule: EIF4A3 (from UniProt P38919 1-411)
binding [1]: no binding

Molecule: EIF4G2 (from UniProt P78344 1-907)
binding [2]: binds
binding [3]: binds
binding [4]: binds

Molecule: MAGOH (from UniProt P61326 1-146)
binding [1]: no binding

Molecule: UPF2 (from UniProt Q9HAU5 1-1272)
binding [7]: binds
binding [3]: binds

B1: UPF1 (protein, UniProt Q92900 1-1129)
chain: T2 sequence
binding [8]: binds

The remaining lines, values ahead:

binding [2]: binds
binding [3]: binds
binding [4]: binds
Molecule: CRK (from UniProt P46108 1-304)

binding [2]: binds
binding [3]: binds
binding [4]: binds
Molecule: DNAJB1 (from UniProt P25685 1-340)

binding [4]: no binding
Molecule: NBAS (from UniProt A2RRP1 1-2371)

binding [7]: binds weakly
binding [3]: binds
Molecule: SMG1 (from UniProt Q96Q15 1-3661)

binding [2]: binds
binding [3]: binds
binding [4]: binds weakly
Molecule: XRN1 (from UniProt Q8IZH2 1-1706)
